Test results: patent US8663642B2, “Anti-CD70 antibody-drug conjugates and their use for the treatment and prevention of cancer and immune disorders” (priority 2003, dated 2014)
Some entries share one result that the patent states for a list of compounds.

System: WSU-NHL cells
Experiment: 3H-TdR proliferation assay, hematologic lines
Type: cell-based, human
Details: 96 hours
Method: FIG. 5: Effects of anti-CD70 ADCs on the proliferation of transformed hematologic cell lines. A subset of the CD70^+ cell lines shown in FIG. 4 and the CD70^− Jurkat cell line were tested for their sensitivity toward 1F6 ADCs. Graded doses of the 1F6-vcMMAE, 1F6-vcAFP, or the corresponding non-binding control IgG (IgG) ADCs were added to cells at the initiation of culture. Cells were exposed to the ADCs continuously for a total of 96 hours. Proliferation was determined by pulsing with ^3H-TdR during the last 16 hours of incubation. The upper panels show the response of the WSU-NHL and Jurkat lines. The lower panel summaries the responses by the tested cell lines to 1F6-vcMMAE and 1F6-vcAFP in form of IC50s.
A subset of the CD70^+ hematologic lines listed in FIG. 4 was tested for sensitivity to the 1F6 ADCs. These lines were seeded at 5,000 cells per well in 96-well plates in quadruplicates in a total of 200 μl of culture medium containing graded doses of the ADCs as indicated in the FIG. 5 and the accompanying figure legend. Proliferation assays were carried out for 96 hours. Tritiated thymidine (^3H-TdR) incorporation during the last 16 hours of incubation was used to assess DNA synthesis. The responses of a CD70^+ B lymphoma cell line WSU-NHL and the CD70^− Jurkat cells are shown in the upper panels of FIG. 5. […]

B1: 1F6-vcMMAE: anti-CD70 mAb 1F6 linked to monomethyl auristatin E by the valine-citrulline (vc) dipeptide linker (conjugate)
VH: QIQLVQSGPEVKKPGETVKISCKASGYTFTNYGMNWVKQAPGKGLKWMGWINTYTGEPTYADAFKGRFAFSLETSASTAYLQINNLKNEDTATYFCARDYGDYGMDYWGQGTSVTVSS
VL: DIVLTQSPASLAVSLGQRATISCRASKSVSTSGYSFMHWYQQKPGQPPKLLIYLASNLESGVPARFSGSGSGTDFTLNIHPVEEEDAATYYCQHSREVPWTFGGGTKLEIKR
modifications: non-natural residues
notes: anti-CD70 mAb 1F6 linked to monomethyl auristatin E by the valine-citrulline (vc) dipeptide linker
For B1, the “concentrations at which proliferation inhibitory effects were apparent” value was “higher than 0.005 μg/ml”.

B2: 1F6-vcAFP: anti-CD70 mAb 1F6 linked to auristatin phenylalanine phenylenediamine by the valine-citrulline (vc) dipeptide linker (conjugate)
VH: B1 VH
VL: B1 VL
modifications: non-natural residues
notes: anti-CD70 mAb 1F6 linked to auristatin phenylalanine phenylenediamine by the valine-citrulline (vc) dipeptide linker
For B2, the “concentrations at which proliferation inhibitory effects were apparent” value was “higher than 0.005 μg/ml”.
